Laboratory results as given in paper PMC10897315.
These are yes or no findings as the source states them, for the method shown. In cells and extracts the contact can be indirect. Some entries that bind do so weakly or less than the wild type. Where a sequence is shown, tags or fusion partners need not be part of it.

Biological target: T1, Atg13^wt-GFP (S. cerevisiae) (UniProt Q06628)
T1 sequence: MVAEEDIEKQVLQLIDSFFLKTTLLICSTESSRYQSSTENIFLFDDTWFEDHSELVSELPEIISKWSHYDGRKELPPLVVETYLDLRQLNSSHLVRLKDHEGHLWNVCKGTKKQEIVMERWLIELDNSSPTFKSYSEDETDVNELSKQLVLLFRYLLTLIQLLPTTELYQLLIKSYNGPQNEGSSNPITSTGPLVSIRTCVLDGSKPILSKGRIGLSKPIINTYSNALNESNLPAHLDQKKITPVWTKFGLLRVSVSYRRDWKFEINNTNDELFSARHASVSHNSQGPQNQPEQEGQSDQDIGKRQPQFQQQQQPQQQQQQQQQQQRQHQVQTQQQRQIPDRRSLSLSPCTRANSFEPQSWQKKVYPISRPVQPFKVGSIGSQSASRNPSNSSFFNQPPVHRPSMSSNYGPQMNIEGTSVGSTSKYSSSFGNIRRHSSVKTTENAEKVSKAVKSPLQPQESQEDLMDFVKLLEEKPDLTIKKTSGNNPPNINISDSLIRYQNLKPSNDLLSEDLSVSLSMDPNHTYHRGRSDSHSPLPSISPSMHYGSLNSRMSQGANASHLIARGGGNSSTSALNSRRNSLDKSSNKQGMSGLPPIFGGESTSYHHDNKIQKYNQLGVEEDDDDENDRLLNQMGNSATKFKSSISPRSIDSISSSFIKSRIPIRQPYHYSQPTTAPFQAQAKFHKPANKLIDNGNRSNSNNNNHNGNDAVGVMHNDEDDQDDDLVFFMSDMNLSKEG
Test: co-IP; GFP-tagged Atg13 precipitated on GFP-Trap Dynabeads from cleared extract of freezer-milled yeast in IP buffer (1x PBS, 10% glycerol, 0.5% Tween-20, phosphatase and protease inhibitors), 1 h at 4 °C; cells starved for 1 h; anti-GFP and anti-Atg17 western blot

- binding: binds
B1: Atg17 (protein, UniProt Q06410 1-417)
chain: MNEADVTKFVNNARKTLTDAQLLCSSANLRIVDIKKKLSSWQLSISKLNFLIVGLRQQGKFLYTILKEGIGTKLIQKQWNQAVLVVLVDEMKYWQYEITSKVQRLDGIVNELSISEKDDTDPSKLGDYISRDNVNLLNDKLKEVPVIERQIENIKLQYENMVRKVNKELIDTKLTDVTQKFQSKFGIDNLMETNVAEQFSRELTDLEKDLAEIMNSLTQHFDKTLLLQDKKIDNDEREELFKVVQGDDKELYNIFKTLHEVIDDVDKTILNLGQFLQAKIKEKTELHSEVSEIINDFNRNLEYLLIFKDISNLIDSFKNSCTQDIQTTKELCEFYDNFEESYGNLVLEAKRRKDVANRMKTILKDCEKQLQNLDAQDQEERQNFIAENGTYLPETIWPGKIDDFSSLYTLNYNVKNP
